Results: the supplement of paper PMC8728848
Some of the results follow.

Columns and labels:
Assay in all cases: glycan array binding signal (z-score within array); higher = stronger binding
Settings in all cases: glycan notation: IUPAC condensed, linker removed
[1] = molecular target: Gal(b1-4)GlcNAc(b1-2)[Gal(b1-4)GlcNAc(b1-6)]Man(a1-6)[GlcNAc(b1-4)][Gal(b1-4)GlcNAc(b1-2)Man(a1-3)]Man(b1-4)GlcNAc(b1-4)GlcNAc
Outline: (§1)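 Glycan array data were curated from 3228 arrays in the Consortium for Functional Glycomics database and kept only where the protein sequence was available. Glycan names were converted to IUPAC-condensed notation, and columns mapping to the same glycan were averaged. The binding signal is a within-array Z-score, averaged across arrays of the same protein sequence at different concentrations or buffers and across linkers. Negative Z-scores can be read as non-binding.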

[2] = molecular target: Gal(b1-4)GlcNAc(b1-2)[Gal(b1-4)GlcNAc(b1-6)]Man(a1-6)[GlcNAc(b1-4)][Gal(b1-4)GlcNAc(b1-2)[Gal(b1-4)GlcNAc(b1-4)]Man(a1-3)]Man(b1-4)GlcNAc(b1-4)[Fuc(a1-6)]GlcNAc
Outline: as §1

[3] = molecular target: Gal(b1-4)GlcNAc(b1-3)Gal(b1-3)GalNAc
Outline: as §1

[4] = molecular target: Gal(b1-4)GlcNAc(b1-3)Gal(b1-3)GlcNAc
Outline: as §1

[5] = molecular target: Gal(b1-4)GlcNAc(b1-3)Gal(b1-4)Glc
Outline: as §1

[6] = molecular target: Gal(b1-4)GlcNAc(b1-3)Gal(b1-4)GlcNAc
Outline: as §1

[7] = molecular target: Gal(b1-4)GlcNAc(b1-3)Gal(b1-4)GlcNAc(b1-2)Man(a1-3)[Gal(b1-4)GlcNAc(b1-3)Gal(b1-4)GlcNAc(b1-2)Man(a1-6)]Man(b1-4)GlcNAc(b1-4)GlcNAc
Outline: as §1

[8] = molecular target: Gal(b1-4)GlcNAc(b1-3)Gal(b1-4)GlcNAc(b1-2)Man(a1-3)[Gal(b1-4)GlcNAc(b1-3)Gal(b1-4)GlcNAc(b1-2)Man(a1-6)]Man(b1-4)GlcNAc(b1-4)[Fuc(a1-6)]GlcNAc
Outline: as §1

[9] = molecular target: Gal(b1-4)GlcNAc(b1-3)Gal(b1-4)GlcNAc(b1-2)[Gal(b1-4)GlcNAc(b1-3)Gal(b1-4)GlcNAc(b1-6)]Man(a1-6)[Gal(b1-4)GlcNAc(b1-3)Gal(b1-4)GlcNAc(b1-2)Man(a1-3)]Man(b1-4)GlcNAc(b1-4)GlcNAc
Outline: as §1

[10] = molecular target: Gal(b1-4)GlcNAc(b1-3)Gal(b1-4)GlcNAc(b1-2)[Gal(b1-4)GlcNAc(b1-3)Gal(b1-4)GlcNAc(b1-6)]Man(a1-6)[Gal(b1-4)GlcNAc(b1-3)Gal(b1-4)GlcNAc(b1-2)Man(a1-3)]Man(b1-4)GlcNAc(b1-4)[Fuc(a1-6)]GlcNAc
Outline: as §1

[11] = molecular target: Gal(b1-4)GlcNAc(b1-3)Gal(b1-4)GlcNAc(b1-3)Gal(b1-4)GlcNAc
Outline: as §1

[12] = molecular target: Gal(b1-4)GlcNAc(b1-3)Gal(b1-4)GlcNAc(b1-3)Gal(b1-4)GlcNAc(b1-2)Man(a1-3)[Gal(b1-4)GlcNAc(b1-3)Gal(b1-4)GlcNAc(b1-3)Gal(b1-4)GlcNAc(b1-2)Man(a1-6)]Man(b1-4)GlcNAc(b1-4)GlcNAc
Outline: as §1

[13] = molecular target: Gal(b1-4)GlcNAc(b1-3)Gal(b1-4)GlcNAc(b1-3)Gal(b1-4)GlcNAc(b1-2)Man(a1-3)[Gal(b1-4)GlcNAc(b1-3)Gal(b1-4)GlcNAc(b1-3)Gal(b1-4)GlcNAc(b1-2)Man(a1-6)]Man(b1-4)GlcNAc(b1-4)[Fuc(a1-6)]GlcNAc
Outline: as §1

[14] = molecular target: Gal(b1-4)GlcNAc(b1-3)Gal(b1-4)GlcNAc(b1-3)Gal(b1-4)GlcNAc(b1-2)[Gal(b1-4)GlcNAc(b1-3)Gal(b1-4)GlcNAc(b1-3)Gal(b1-4)GlcNAc(b1-6)]Man(a1-6)[Gal(b1-4)GlcNAc(b1-3)Gal(b1-4)GlcNAc(b1-3)Gal(b1-4)GlcNAc(b1-2)Man(a1-3)]Man(b1-4)GlcNAc(b1-4)[Fuc(a1-6)]GlcNAc
Outline: as §1

[15] = molecular target: Gal(b1-4)GlcNAc(b1-3)Gal(b1-4)GlcNAc(b1-3)Gal(b1-4)GlcNAc(b1-3)Gal(b1-4)GlcNAc(b1-2)Man(a1-3)[Gal(b1-4)GlcNAc(b1-3)Gal(b1-4)GlcNAc(b1-3)Gal(b1-4)GlcNAc(b1-3)Gal(b1-4)GlcNAc(b1-2)Man(a1-6)]Man(b1-4)GlcNAc(b1-4)GlcNAc
Outline: as §1

[16] = molecular target: Gal(b1-4)GlcNAc(b1-3)Gal(b1-4)GlcNAc(b1-3)Gal(b1-4)GlcNAc(b1-3)Gal(b1-4)GlcNAc(b1-2)Man(a1-3)[Gal(b1-4)GlcNAc(b1-3)Gal(b1-4)GlcNAc(b1-3)Gal(b1-4)GlcNAc(b1-3)Gal(b1-4)GlcNAc(b1-2)Man(a1-6)]Man(b1-4)GlcNAc(b1-4)[Fuc(a1-6)]GlcNAc
Outline: as §1

[17] = molecular target: Gal(b1-4)GlcNAc(b1-3)Gal(b1-4)GlcNAc(b1-3)Gal(b1-4)GlcNAc(b1-3)Gal(b1-4)GlcNAc(b1-2)[Gal(b1-4)GlcNAc(b1-3)Gal(b1-4)GlcNAc(b1-3)Gal(b1-4)GlcNAc(b1-3)Gal(b1-4)GlcNAc(b1-6)]Man(a1-6)[Gal(b1-4)GlcNAc(b1-3)Gal(b1-4)GlcNAc(b1-3)Gal(b1-4)GlcNAc(b1-3)Gal(b1-4)GlcNAc(b1-2)Man(a1-3)]Man(b1-4)GlcNAc(b1-4)[Fuc(a1-6)]GlcNAc
Outline: as §1

[18] = molecular target: Gal(b1-4)GlcNAc(b1-3)Gal(b1-4)GlcNAc(b1-3)Gal(b1-4)GlcNAc(b1-3)Gal(b1-4)GlcNAc(b1-3)Gal(b1-4)GlcNAc(b1-2)Man(a1-3)[Gal(b1-4)GlcNAc(b1-3)Gal(b1-4)GlcNAc(b1-3)Gal(b1-4)GlcNAc(b1-3)Gal(b1-4)GlcNAc(b1-3)Gal(b1-4)GlcNAc(b1-2)Man(a1-6)]Man(b1-4)GlcNAc(b1-4)GlcNAc
Outline: as §1

[19] = molecular target: Gal(b1-4)GlcNAc(b1-3)Gal(b1-4)GlcNAc(b1-3)Gal(b1-4)GlcNAc(b1-3)Gal(b1-4)GlcNAc(b1-3)Gal(b1-4)GlcNAc(b1-2)Man(a1-3)[Gal(b1-4)GlcNAc(b1-3)Gal(b1-4)GlcNAc(b1-3)Gal(b1-4)GlcNAc(b1-3)Gal(b1-4)GlcNAc(b1-3)Gal(b1-4)GlcNAc(b1-2)Man(a1-6)]Man(b1-4)GlcNAc(b1-4)[Fuc(a1-6)]GlcNAc
Outline: as §1

[20] = molecular target: Gal(b1-4)GlcNAc(b1-3)Gal(b1-4)GlcNAc(b1-3)Gal(b1-4)GlcNAc(b1-3)Gal(b1-4)GlcNAc(b1-3)Gal(b1-4)GlcNAc(b1-2)[Gal(b1-4)GlcNAc(b1-3)Gal(b1-4)GlcNAc(b1-3)Gal(b1-4)GlcNAc(b1-3)Gal(b1-4)GlcNAc(b1-3)Gal(b1-4)GlcNAc(b1-6)]Man(a1-6)[Gal(b1-4)GlcNAc(b1-3)Gal(b1-4)GlcNAc(b1-3)Gal(b1-4)GlcNAc(b1-3)Gal(b1-4)GlcNAc(b1-3)Gal(b1-4)GlcNAc(b1-2)Man(a1-3)]Man(b1-4)GlcNAc(b1-4)[Fuc(a1-6)]GlcNAc
Outline: as §1

[21] = molecular target: Gal(b1-4)GlcNAc(b1-3)Gal(b1-4)GlcNAc(b1-3)Gal(b1-4)GlcNAc(b1-3)Gal(b1-4)GlcNAc(b1-3)Gal(b1-4)GlcNAc(b1-3)Gal(b1-4)GlcNAc(b1-2)Man(a1-3)[Gal(b1-4)GlcNAc(b1-3)Gal(b1-4)GlcNAc(b1-3)Gal(b1-4)GlcNAc(b1-3)Gal(b1-4)GlcNAc(b1-3)Gal(b1-4)GlcNAc(b1-3)Gal(b1-4)GlcNAc(b1-2)Man(a1-6)]Man(b1-4)GlcNAc(b1-4)GlcNAc
Outline: as §1

[22] = molecular target: Gal(b1-4)GlcNAc(b1-3)Gal(b1-4)GlcNAc(b1-3)GalNAc
Outline: as §1

[23] = molecular target: Gal(b1-4)GlcNAc(b1-3)Gal(b1-4)GlcNAc(b1-3)[Gal(b1-4)GlcNAc(b1-3)Gal(b1-4)GlcNAc(b1-6)]GalNAc
Outline: as §1

[24] = molecular target: Gal(b1-4)GlcNAc(b1-3)Gal(b1-4)GlcNAc(b1-6)[Gal(b1-3)]GalNAc
Outline: as §1

[25] = molecular target: Gal(b1-4)GlcNAc(b1-3)Gal(b1-4)[Fuc(a1-3)]GlcNAc(b1-3)Gal(b1-4)[Fuc(a1-3)]GlcNAc
Outline: as §1

[26] = molecular target: Gal(b1-4)GlcNAc(b1-3)GalNAc
Outline: as §1

[27] = molecular target: Gal(b1-4)GlcNAc(b1-3)[Fuc(a1-3)GlcNAc(b1-6)]Gal(b1-4)Glc
Outline: as §1

[28] = molecular target: Gal(b1-4)GlcNAc(b1-3)[Gal(b1-4)GlcNAc(b1-6)]Gal(b1-4)GlcNAc
Outline: as §1

[29] = molecular target: Gal(b1-4)GlcNAc(b1-3)[GlcNAc(b1-6)]Gal(b1-4)GlcNAc
Outline: as §1

[30] = molecular target: Gal(b1-4)GlcNAc(b1-6)Gal(b1-4)GlcNAc
Outline: as §1

[31] = molecular target: Gal(b1-4)GlcNAc(b1-6)GalNAc
Outline: as §1

[32] = molecular target: Gal(b1-4)GlcNAc(b1-6)[Gal(b1-3)]GalNAc
Outline: as §1

[33] = molecular target: Gal(b1-4)GlcNAc(b1-6)[Gal(b1-4)GlcNAc(b1-3)]GalNAc
Outline: as §1

Gal(b1-4)GlcNAc6P = molecular target: Gal(b1-4)GlcNAc6P
Outline: as §1

Gal(b1-6)Gal = molecular target: Gal(b1-6)Gal
Outline: as §1

Gal3S(b1-3)GalNAc = molecular target: Gal3S(b1-3)GalNAc
Outline: as §1

Gal3S(b1-3)GlcNAc = molecular target: Gal3S(b1-3)GlcNAc
Outline: as §1

[34] = molecular target: Gal3S(b1-3)[Fuc(a1-4)]GlcNAc
Outline: as §1

B1: GS13814A-bth-462-26-462 (Bacteroides thetaiotaomicron) (protein)
chain: DDRDNLMVNDQIGLLHSTYTETEIFRGMDTPYQLFVIKSGKGKQETEVSISVDETVLQSYNTDNGTSIQLLPSDCYTILQPALRLNDSDYRKAFDIKWNADRLSDLLSTGKEYGLPIQMSVVQNFISADDERLKTIIVPTIKEPYLQMDVPGMSPVTDFMPTFGDLNERELFVKIRTNYSNDEDISFQIEVDPQLVIDYNTAHGTAYKMLPESSFTVDNKGVILTGMKETFIKIKYHKKGLIPEEGTYLFGDYVLPLRITSVSKYGISPDAASKLYTVKFQPDPIDKKGWSVIDFNNCCTQDGGWYLNMGWGVESLIDNNPGTQWLCRWDVKEPLPYYFVFDMGKEYTLFRFGFANPVAPAAHVWAGTSKAGYVEASIDNENWVKLKDWTSPKIGEPNVNMDVPATQARYIRFVITDTYPTYDGLRVSLGEVYAWGM
glycan array binding signal (z-score) [1]: -0.875 | glycan array binding signal (z-score) [2]: 1.79 | glycan array binding signal (z-score) [3]: -0.739 | glycan array binding signal (z-score) [4]: -0.895 | glycan array binding signal (z-score) [5]: 0.207 | glycan array binding signal (z-score) [6]: 0.079 | glycan array binding signal (z-score) [7]: 0.292 | glycan array binding signal (z-score) [8]: 1.24 | glycan array binding signal (z-score) [9]: -0.241 | glycan array binding signal (z-score) [10]: -1.28 | glycan array binding signal (z-score) [11]: -0.735 | glycan array binding signal (z-score) [12]: 0.96 | glycan array binding signal (z-score) [13]: -0.466 | glycan array binding signal (z-score) [14]: 0.613 | glycan array binding signal (z-score) [15]: 0.863 | glycan array binding signal (z-score) [16]: 0.552 | glycan array binding signal (z-score) [17]: 0.591 | glycan array binding signal (z-score) [18]: -0.185 | glycan array binding signal (z-score) [19]: -0.723 | glycan array binding signal (z-score) [20]: 1.26 | glycan array binding signal (z-score) [21]: 0.46 | glycan array binding signal (z-score) [22]: -1 | glycan array binding signal (z-score) [23]: -0.172 | glycan array binding signal (z-score) [24]: -0.68 | glycan array binding signal (z-score) [25]: 0.104 | glycan array binding signal (z-score) [26]: -0.288 | glycan array binding signal (z-score) [27]: -0.576 | glycan array binding signal (z-score) [28]: -0.298 | glycan array binding signal (z-score) [29]: -0.604 | glycan array binding signal (z-score) [30]: 1.76 | glycan array binding signal (z-score) [31]: -0.131 | glycan array binding signal (z-score) [32]: -0.098 | glycan array binding signal (z-score) [33]: 0.309 | glycan array binding signal (z-score) (Gal(b1-4)GlcNAc6P): 0.706 | glycan array binding signal (z-score) (Gal(b1-6)Gal): 0.332 | glycan array binding signal (z-score) (Gal3S(b1-3)GalNAc): 0.24 | glycan array binding signal (z-score) (Gal3S(b1-3)GlcNAc): -0.591 | glycan array binding signal (z-score) [34]: -0.022
